This is an account of results in article PMC9463175.

These are yes or no findings as the source states them, for the method shown. Binding seen in cells or lysates may run through a third protein. These calls come from enrichment with a bait or labelling near it, and not all partners need be listed.

This assay concerns the target T1, ZNF276 (bait of the immunoprecipitation plus mass spectrometry) (UniProt Q8N554).
T1 sequence: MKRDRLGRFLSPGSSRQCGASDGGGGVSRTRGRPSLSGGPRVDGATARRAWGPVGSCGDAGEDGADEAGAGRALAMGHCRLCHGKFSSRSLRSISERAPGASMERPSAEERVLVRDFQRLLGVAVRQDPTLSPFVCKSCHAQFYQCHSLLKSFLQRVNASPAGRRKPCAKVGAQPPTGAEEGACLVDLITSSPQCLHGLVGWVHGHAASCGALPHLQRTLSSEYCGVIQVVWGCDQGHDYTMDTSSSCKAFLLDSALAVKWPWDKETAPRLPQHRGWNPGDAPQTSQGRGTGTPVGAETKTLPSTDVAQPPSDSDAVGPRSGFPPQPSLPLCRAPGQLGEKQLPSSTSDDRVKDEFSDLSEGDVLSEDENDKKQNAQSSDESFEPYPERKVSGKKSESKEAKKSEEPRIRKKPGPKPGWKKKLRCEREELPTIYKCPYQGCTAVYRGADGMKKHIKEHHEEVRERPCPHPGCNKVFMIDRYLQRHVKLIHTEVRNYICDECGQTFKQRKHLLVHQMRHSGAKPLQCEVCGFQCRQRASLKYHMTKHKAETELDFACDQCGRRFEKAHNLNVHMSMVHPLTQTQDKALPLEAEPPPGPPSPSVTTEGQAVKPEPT
In words: affinity purification with mass spectrometry; immunoprecipitation (IP) of ZNF276 plus mass spectrometry; non-specific proteins of the control group removed; cells and antibody not stated.

B1: MAGEB2 (found by mass spectrometry in the ZNF276 immunoprecipitate) (protein, UniProt O15479 1-319)
chain: MPRGQKSKLRAREKRRKARDETRGLNVPQVTEAEEEEAPCCSSSVSGGAASSSPAAGIPQEPQRAPTTAAAAAAGVSSTKSKKGAKSHQGEKNASSSQASTSTKSPSEDPLTRKSGSLVQFLLYKYKIKKSVTKGEMLKIVGKRFREHFPEILKKASEGLSVVFGLELNKVNPNGHTYTFIDKVDLTDEESLLSSWDFPRRKLLMPLLGVIFLNGNSATEEEIWEFLNMLGVYDGEEHSVFGEPWKLITKDLVQEKYLEYKQVPSSDPPRFQFLWGPRAYAETSKMKVLEFLAKVNGTTPCAFPTHYEEALKDEEKAGV
Take B1: the binding entry is “binds”.
